The target in experiment [1] is T1, USP19 (ubiquitin-specific protease 19), endogenous in HEK-293T (human (endogenous in HEK-293T)) (UniProt O94966).
T1 sequence: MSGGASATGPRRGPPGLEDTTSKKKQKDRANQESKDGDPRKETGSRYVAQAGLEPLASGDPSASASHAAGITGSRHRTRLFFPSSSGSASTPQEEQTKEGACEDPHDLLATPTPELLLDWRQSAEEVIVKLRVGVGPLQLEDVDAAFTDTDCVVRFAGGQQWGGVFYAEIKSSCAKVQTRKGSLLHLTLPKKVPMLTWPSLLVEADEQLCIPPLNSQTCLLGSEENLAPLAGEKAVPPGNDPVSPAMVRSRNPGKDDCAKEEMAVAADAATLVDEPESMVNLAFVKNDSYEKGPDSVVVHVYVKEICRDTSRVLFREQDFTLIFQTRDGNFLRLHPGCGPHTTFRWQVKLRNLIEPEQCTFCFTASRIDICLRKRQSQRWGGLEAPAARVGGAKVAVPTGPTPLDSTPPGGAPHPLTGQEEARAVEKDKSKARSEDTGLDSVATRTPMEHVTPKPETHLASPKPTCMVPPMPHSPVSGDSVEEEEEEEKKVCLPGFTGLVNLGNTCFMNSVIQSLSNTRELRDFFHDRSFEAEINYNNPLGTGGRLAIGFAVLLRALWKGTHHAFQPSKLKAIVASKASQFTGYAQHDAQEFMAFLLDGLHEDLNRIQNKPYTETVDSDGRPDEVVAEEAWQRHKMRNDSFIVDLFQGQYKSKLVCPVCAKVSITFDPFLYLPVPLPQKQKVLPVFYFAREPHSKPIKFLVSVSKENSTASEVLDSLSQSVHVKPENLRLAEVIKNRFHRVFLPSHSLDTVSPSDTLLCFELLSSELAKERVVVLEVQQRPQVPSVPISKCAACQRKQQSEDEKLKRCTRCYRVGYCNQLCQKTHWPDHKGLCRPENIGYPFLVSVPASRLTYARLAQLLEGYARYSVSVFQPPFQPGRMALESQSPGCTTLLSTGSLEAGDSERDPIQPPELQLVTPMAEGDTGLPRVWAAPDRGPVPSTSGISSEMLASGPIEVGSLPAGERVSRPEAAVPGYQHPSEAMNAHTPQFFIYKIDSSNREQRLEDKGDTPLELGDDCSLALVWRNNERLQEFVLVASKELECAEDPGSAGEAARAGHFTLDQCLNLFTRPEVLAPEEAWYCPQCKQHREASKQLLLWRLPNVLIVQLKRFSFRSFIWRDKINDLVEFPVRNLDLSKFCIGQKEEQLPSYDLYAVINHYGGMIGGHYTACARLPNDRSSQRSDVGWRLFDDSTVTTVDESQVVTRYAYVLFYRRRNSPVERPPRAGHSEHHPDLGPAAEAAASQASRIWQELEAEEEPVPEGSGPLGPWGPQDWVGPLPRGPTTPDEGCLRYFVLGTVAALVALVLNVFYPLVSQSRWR
Description: co-IP; endogenous proteins, HEK-293T lysates, immunoprecipitation with anti-USP19, immunoblot with anti-BAG6 or USP19; RIPA lysis buffer.

By UniProt entry, the sequences of proteins in these tests, tags left out.
UniProt P10415: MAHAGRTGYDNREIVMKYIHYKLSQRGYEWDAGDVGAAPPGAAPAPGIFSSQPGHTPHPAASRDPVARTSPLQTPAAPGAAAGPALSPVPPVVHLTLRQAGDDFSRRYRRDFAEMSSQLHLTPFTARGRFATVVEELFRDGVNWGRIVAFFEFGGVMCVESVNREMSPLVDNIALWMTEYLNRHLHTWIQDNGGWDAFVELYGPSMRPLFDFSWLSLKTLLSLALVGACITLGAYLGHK
UniProt P46379: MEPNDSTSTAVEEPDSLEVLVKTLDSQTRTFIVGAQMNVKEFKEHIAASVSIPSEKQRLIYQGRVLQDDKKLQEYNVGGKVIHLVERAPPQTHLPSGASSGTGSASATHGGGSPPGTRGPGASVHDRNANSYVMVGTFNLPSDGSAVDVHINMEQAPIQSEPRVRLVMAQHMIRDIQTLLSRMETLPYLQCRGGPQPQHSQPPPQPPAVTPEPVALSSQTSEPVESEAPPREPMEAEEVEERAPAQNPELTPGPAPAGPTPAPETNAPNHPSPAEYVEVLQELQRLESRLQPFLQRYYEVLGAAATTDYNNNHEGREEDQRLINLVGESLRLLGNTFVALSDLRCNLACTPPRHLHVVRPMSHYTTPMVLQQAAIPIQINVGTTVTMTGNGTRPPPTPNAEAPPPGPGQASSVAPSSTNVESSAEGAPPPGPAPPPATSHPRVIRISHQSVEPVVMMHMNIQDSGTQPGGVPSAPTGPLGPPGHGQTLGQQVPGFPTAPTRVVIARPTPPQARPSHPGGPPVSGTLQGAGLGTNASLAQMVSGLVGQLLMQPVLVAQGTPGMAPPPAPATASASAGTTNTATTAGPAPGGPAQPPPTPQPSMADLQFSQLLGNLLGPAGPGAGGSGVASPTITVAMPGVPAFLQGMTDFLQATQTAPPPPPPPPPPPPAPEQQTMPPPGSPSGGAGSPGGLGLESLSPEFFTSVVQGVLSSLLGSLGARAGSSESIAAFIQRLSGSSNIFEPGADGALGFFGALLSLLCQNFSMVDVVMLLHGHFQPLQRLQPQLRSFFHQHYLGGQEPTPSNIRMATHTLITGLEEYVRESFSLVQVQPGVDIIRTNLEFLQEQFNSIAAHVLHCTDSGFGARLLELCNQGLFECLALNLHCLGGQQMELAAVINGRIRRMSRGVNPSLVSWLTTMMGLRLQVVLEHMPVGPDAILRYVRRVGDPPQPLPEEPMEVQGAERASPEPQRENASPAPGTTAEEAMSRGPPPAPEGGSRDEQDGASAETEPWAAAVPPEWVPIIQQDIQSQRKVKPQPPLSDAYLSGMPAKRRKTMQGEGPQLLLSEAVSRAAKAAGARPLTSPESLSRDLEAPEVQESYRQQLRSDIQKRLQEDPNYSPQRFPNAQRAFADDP

Experiment [2] has as its target T2, USP19 in MCF-10A cells (human (endogenous in MCF-10A)) (UniProt O94966).
T2 sequence: T1 sequence
Description: co-IP; MCF-10A cells, IP/WB of USP19 and BAG6.

Experiment [3] has as its target BCL2 (B-cell lymphoma 2), endogenous in MDA-MB-231 (human (endogenous in MDA-MB-231)) (UniProt P10415). As to the kind of experiment: co-IP; MDA-MB-231 lysates, immunoprecipitation with anti-BAG6 and reverse co-IP of BCL2, immunoblot with anti-BCL2 or BAG6 (Figure 6B; endogenous by the legend). On the technique in general: A western blot detects proteins with antibodies after separation by electrophoresis.

The target of experiment [4] is T3, USP19 in MDA-MB-231 cells (human (endogenous in MDA-MB-231)) (UniProt O94966).
T3 sequence: T1 sequence
Description: co-IP; MDA-MB-231 cells, IP/WB of USP19 and BAG6.

The target of experiment [5] is BAG6, endogenous in MDA-MB-231 cells (human (endogenous in MDA-MB-231)) (UniProt P46379). Description: co-IP; MDA-MB-231 lysates, immunoprecipitation with anti-BAG6 and reverse co-IP of BCL2, immunoblot with anti-BCL2 or BAG6 (Figure 6B; endogenous by the legend).
The target of experiment [6] is T1, USP19 (ubiquitin-specific protease 19), endogenous in HEK-293T (human (endogenous in HEK-293T)). As to the kind of experiment: co-IP; HEK-293T, ectopically expressed BAG6; USP19 immune complex and reverse BAG6 immune complex, IP-Western blot (Figure 3H).
For experiment [7], the target named is Flag-tagged BAG6 (in MDA-MB-231) (UniProt P46379). Description: co-IP; MDA-MB-231 co-transfected with Flag-BAG6 and His-BCL2 plasmids; immunoprecipitation with anti-BAG6, immunoblot with anti-BCL2 or BAG6.
The target of experiment [8] is Flag-tagged BAG6 (in HEK-293T) (UniProt P46379). As to the kind of experiment: co-IP; HEK-293T, ectopically expressed BAG6; USP19 immune complex and reverse BAG6 immune complex, IP-Western blot (Figure 3H).

Results are given in words; binding and its absence hold for the method and conditions named. Binding seen in cells or lysates may run through a third protein. Some entries that bind do so weakly or less than the wild type.

For “BAG6 (BAG family molecular chaperone regulator 6), endogenous in HEK-293T (from UniProt P46379 1-1132)”, the binding entry in experiment [1] was “binds”.
As for “BAG6 in MCF-10A cells (from UniProt P46379 1-1132)”, the binding result in experiment [2] is reported as “binds”.
Take “BAG6, endogenous in MDA-MB-231 cells (from UniProt P46379 1-1132)”: the binding result in experiment [3] and in experiment [4] was “binds” each time.
Take “BCL2 (B-cell lymphoma 2), endogenous in MDA-MB-231 (from UniProt P10415 1-239)”: the binding result in experiment [5] is listed as “binds”.
Consider “Flag-tagged BAG6 (in HEK-293T) (from UniProt P46379 1-1132)”, for which, in experiment [6], the binding result was “binds”.
Turning to His-BCL2 (from UniProt P10415 1-239), the binding entry in experiment [7] is given as “binds”.

B1: USP19 (ubiquitin-specific protease 19), endogenous in HEK-293T (enzyme, UniProt O94966 1-1318)
chain: T1 sequence
For the molecule B1, in experiment [8], the binding result is on record as “binds”.

(Values after article PMC10497826.)
